Assay: Laser photolysis at 355 nm, released NADP quantified by the G6PD assay
Type: physicochemical

SMILES: COc1cc(C(C)OP(=O)(O)O[C@@H]2[C@H](O)[C@@H](COP(=O)(O)OP(=O)([O-])OC[C@H]3O[C@@H]([n+]4cccc(C(N)=O)c4)[C@H](O)[C@@H]3O)O[C@H]2n2cnc3c(N)ncnc32)c([N+](=O)[O-])cc1OC (stereo partly shown) [compound 1, P^2' -[1-(4,5-Dimethoxy-2-nitrophenyl)ethyl]nicotinamide adenine dinucleotide phosphate]
- photorelease of the caged NADP in the irradiated elliptical cylinder (converted to NADP) (55 mJ, 355 nm, irradiated volume 88 μL of the 800-μL sample): 72%
- photorelease of compound in the cuvette (55 mJ, 355 nm, whole 800-μL sample): 7.9%
- fold lower concentration of 1 than 3 required to produce the same concentration of NADP (excitation at 355 nm): approximately 400 fold
- final concentration of NADP produced (full laser energy 55 mJ, total of 800 ns excitation at 355 nm, initial concentration 51 μM): 4.1 µM

— patent US6020480A, “Caged NADP and NAD” (The Regents of the University of California, priority 1997, dated 2000)
